Measurements from PubChem BioAssay AID2685 (National Center for Advancing Translational Sciences (NCATS), 2010).
Some of the results follow. Further columns of the screen follow, without active or inactive calls. Compounds called inactive in the main read-out are mostly missing here. Potencies come from curve fits of mixed quality, noted in brackets.

Assay: qHTS Assay for Lipid Storage Modulators in Drosophila S3 Cells;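 on cell number change: cells counted by Cell Tracker Red CMTPX staining in the red channel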
Settings: BODIPY lipid droplet fluorescence, 18-24 h; for cell number change: measured here: cell count max response, cells fed with added oleic acid
How it was run: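 Drosophila S3 cells loaded with oleic acid (400 uM, as added) and compounds at several concentrations; lipid droplets imaged by 488-nm laser-scanning cytometry, 500–530 nm intensity and object ratio to cell channel. Percent activity normalized to 20 uM Triacsin C.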

[1] = measured here: lipid fluorescence (Fed channel) AC50, cells fed with added oleic acid
[2] = measured here: cell number channel AC50, cells fed with added oleic acid

Row | Structure (SMILES) | cell number change [%] | AC50 [1] | AC50 [2]
1 | CCOC(=O)c1ccc(S(=O)(=O)N2CCC(C(=O)NCC3CCCCC3)CC2)cc1 | -26.1 |  | 
2 | O=C(c1cccc(C(F)(F)F)c1)C1CCCN(C(=O)/C=C/c2cnc[nH]2)C1 (centres undefined) | 0.85 | 3660 nM [rising, partial curve] | 
3 | Cc1nc(/C(N)=N/OC(=O)c2ccc(Cl)cc2)c(C(F)(F)F)o1 | -40.9 | 29100 nM [falling, single point] | 18400 nM [falling, single point]
4 | O=C(CSc1nc(=O)n2ccccc2n1)Nc1cccc2ccccc12 |  | 2310 nM [rising, partial curve] | 
5 | Cn1c(CSc2nc3ccccc3s2)nnc1SCC(=O)NCCN1CCOCC1 | 9.21 | 411 nM [rising, single point] | 
6 | CCCn1c(=S)[nH]c2cc(C(=O)N(CCO)Cc3ccccc3)ccc2c1=O | -25.5 | 5800 nM [falling, full curve] | 
7 | COc1ccc(CNC(=O)N2CCN(c3cccc(C)c3C)CC2)cc1OC | 28.8 |  | 4.61 nM [rising, full curve, poor fit]
8 | CCOC(=O)c1sc2nc(C)nc(SC(C)C(=O)N(C)c3ccccc3)c2c1C (centres undefined) | -7.38 | 23100 nM [falling, single point] | 
9 | O=C(CN1CCC(n2nnc3cc(F)ccc32)CC1)Nc1ccccc1N1CCOCC1 | -17 | 731 nM [rising, partial curve] | 
10 | CC(=O)c1c(C)[nH]c(C(=O)OCC(=O)N2c3ccccc3NC(=O)C2(C)C)c1C |  | 820 nM [falling, full curve, poor fit] | 
11 | Nc1nc(CSC(=S)N2CCOCC2)nc(Nc2ccccc2)n1 | 10.5 | 1160 nM [rising, full curve] | 
12 | COc1ccc(/C(N)=N/OC(=O)c2ccc(C)c([N+](=O)[O-])c2)cc1OC |  | 6510 nM [rising, single point] | 2590 nM [rising, single point]
13 | O=C(Nc1cc(C(F)(F)F)ccc1N1CCOCC1)c1ccc(Br)o1 | 15.7 | 259 nM [rising, full curve, poor fit] | 731 nM [rising, single point]
14 | CSc1ccccc1NC(=S)NC1CCCC1 | 27.6 | 29100 nM [rising, single point] | 
15 | C=CCn1c(=O)c2c3c(sc2n2c(Nc4ccc(OC)cc4)nnc12)CCCC3 | -11.3 |  | 
16 | Cc1cc(C)c(S(=O)(=O)N2CCCCC2C(=O)O)c(C)c1 (centres undefined) | -34.9 | 14600 nM [falling, partial curve] | 18400 nM [falling, single point]
17 | Cc1nc(SCc2ccccc2)c([N+](=O)[O-])[nH]1 | -2.43 | 20600 nM [rising, partial curve] | 
18 | COc1ccc(C(=O)NC2CCN(CC(=O)NCc3cccc(OC)c3)CC2)cc1 | 16.4 |  | 
19 | CN(C)c1ccc(-c2nnc(-c3cccnc3)o2)cc1 |  |  | 73.1 nM [falling, full curve, poor fit]
20 | CC1CCCCC1N=C1NC(C)(C)CS1 (centres undefined) | -24.6 | 580 nM [falling, full curve, poor fit] | 4110 nM [falling, single point]

Entries listed so far that have nitrogen in an aromatic ring, in the order listed:
Row | Structure (SMILES) | cell number change [%] | AC50 [1] | AC50 [2]
2 | O=C(c1cccc(C(F)(F)F)c1)C1CCCN(C(=O)/C=C/c2cnc[nH]2)C1 (centres undefined) | 0.85 | 3660 nM [rising, partial curve] | 
3 | Cc1nc(/C(N)=N/OC(=O)c2ccc(Cl)cc2)c(C(F)(F)F)o1 | -40.9 | 29100 nM [falling, single point] | 18400 nM [falling, single point]
4 | O=C(CSc1nc(=O)n2ccccc2n1)Nc1cccc2ccccc12 |  | 2310 nM [rising, partial curve] | 
5 | Cn1c(CSc2nc3ccccc3s2)nnc1SCC(=O)NCCN1CCOCC1 | 9.21 | 411 nM [rising, single point] | 
6 | CCCn1c(=S)[nH]c2cc(C(=O)N(CCO)Cc3ccccc3)ccc2c1=O | -25.5 | 5800 nM [falling, full curve] | 
8 | CCOC(=O)c1sc2nc(C)nc(SC(C)C(=O)N(C)c3ccccc3)c2c1C (centres undefined) | -7.38 | 23100 nM [falling, single point] | 
9 | O=C(CN1CCC(n2nnc3cc(F)ccc32)CC1)Nc1ccccc1N1CCOCC1 | -17 | 731 nM [rising, partial curve] | 
10 | CC(=O)c1c(C)[nH]c(C(=O)OCC(=O)N2c3ccccc3NC(=O)C2(C)C)c1C |  | 820 nM [falling, full curve, poor fit] | 
11 | Nc1nc(CSC(=S)N2CCOCC2)nc(Nc2ccccc2)n1 | 10.5 | 1160 nM [rising, full curve] | 
15 | C=CCn1c(=O)c2c3c(sc2n2c(Nc4ccc(OC)cc4)nnc12)CCCC3 | -11.3 |  | 
17 | Cc1nc(SCc2ccccc2)c([N+](=O)[O-])[nH]1 | -2.43 | 20600 nM [rising, partial curve] | 
19 | CN(C)c1ccc(-c2nnc(-c3cccnc3)o2)cc1 |  |  | 73.1 nM [falling, full curve, poor fit]

(continued)

Row | Structure (SMILES) | cell number change [%] | AC50 [1] | AC50 [2]
21 | CCn1c(SCC(=O)NC2CCCCC2)nnc1-c1ccccc1F | 11.8 | 29100 nM [rising, single point] | 
22 | N=c1n(CCO)c2ccccc2n1CCOc1ccccc1 | 3.52 | 5800 nM [falling, full curve] | 
23 | O=C(COC(=O)C1=COCCO1)Nc1ccccc1OC(F)F | -24.2 | 1300 nM [falling, partial curve] | 
24 | CCOc1ccccc1N(CC(=O)Nc1ccccc1F)S(=O)(=O)c1ccccc1 | -24.7 | 29100 nM [falling, single point] | 
25 | CCCOC(=O)C1=C(C)NC2=C(C(=O)CC(C)(C)C2)C1c1cccnc1 (centres undefined) | 13.5 | 731 nM [rising, full curve, poor fit] | 
26 | N#Cc1c(NCCO)ccc([N+](=O)[O-])c1NCCO | -0.241 |  | 2910 nM [rising, single point]
27 | Cc1ccc2nc(N/N=C\c3ccc([N+](=O)[O-])o3)nc(-c3ccccc3)c2c1 |  | 5170 nM [rising, partial curve, poor fit] | 231 nM [rising, full curve, poor fit]
28 | O=c1cnnc(Nc2cccc(F)c2)[nH]1 | 17.2 | 92 nM [falling, partial curve, poor fit] | 
29 | Cc1cc(C)c(OCC(=O)Nc2nnc(-c3ccco3)o2)c(C)c1 | -13.4 | 517 nM [falling, full curve, poor fit] | 
30 | Cc1nn(CC(=O)NNC(=O)c2ccc(Br)cc2)c(C)c1[N+](=O)[O-] | 14.1 | 820 nM [rising, full curve, poor fit] | 
31 | COc1cccc(CCNc2ccc(N3C(=O)CC(C)C3=O)cc2[N+](=O)[O-])c1 (centres undefined) | -7.53 | 65.1 nM [falling, full curve, poor fit] | 
32 | Cc1cc2ccccc2n1CCNC(=O)c1cccs1 |  |  | 2060 nM [rising, single point]
33 | C=C(C)COc1ccc(-c2[nH]ncc2-c2ccc(OC)c(OC)c2)c(O)c1 | -126 | 23100 nM [falling, single point] | 29100 nM [falling, single point]
34 | COc1cccc(/C=N/Nc2nn3cnnc3c3ccccc23)c1 | -32.3 | 731 nM [rising, partial curve] | 29100 nM [falling, single point]
35 | CCCc1cc(=O)[nH]c(SCC(=O)N2CCN(S(=O)(=O)c3ccc4ccccc4c3)CC2)n1 | -33.1 |  | 206 nM [falling, full curve]
36 | CC(=O)Oc1ccccc1C1=NN(C(=O)/C=C/c2ccccc2)C(c2ccccc2)C1 (centres undefined) | -18.8 | 16400 nM [falling, single point] | 
37 | CCOC(=O)c1sc(NC(=O)CCN2C(=O)c3ccccc3C2=O)c(C(=O)OCC)c1C | 10.7 |  | 
38 | c1ccc(NC2=NCCN2CCCC2CCCC2)cc1 | 14.7 | 5800 nM [falling, partial curve, poor fit] | 651 nM [falling, partial curve, poor fit]
39 | O=C(O)c1cc2c(cc1NC(=O)c1ccccc1OC(F)F)OCCCO2 | 17.8 |  | 
40 | COc1ccc(-c2csc(Nc3cccc(C)n3)n2)cc1 | -27.8 | 5.17 nM [falling, full curve, poor fit] | 

Record cards (already shown).
`CCCOC(=O)C1=C(C)NC2=C(C(=O)CC(C)(C)C2)C1c1cccnc1` (centres undefined) reads cell number change [%]: 13.5; AC50 [1]: 731 nM [rising, full curve, poor fit]
`CCOC(=O)c1sc(NC(=O)CCN2C(=O)c3ccccc3C2=O)c(C(=O)OCC)c1C` reads cell number change [%]: 10.7

The listing continues.

Row | Structure (SMILES) | cell number change [%] | AC50 [1] | AC50 [2]
41 | COc1ccc(CCNC(=O)CSc2nnc3ccc(-c4ccccn4)nn23)cc1OC |  | 259 nM [rising, full curve] | 206 nM [rising, full curve, poor fit]
42 | O=C(c1ccccc1)c1cnc[nH]1 | -10.1 |  | 651 nM [rising, full curve, poor fit]
43 | CCOc1cc(S(=O)(=O)NCc2cccs2)ccc1Cl | -5.95 |  | 
44 | CCOc1ccc(-c2ccc(SCC(=O)NCC3CCCO3)nn2)cc1 (centres undefined) | 4.97 | 231 nM [rising, full curve, poor fit] | 
45 | CC1(C)C(=O)Nc2ccccc2N1C(=O)CN1C(=O)C(=O)N(C2CCCC2)C1=O | -11 |  | 
46 | O=C(Cn1nc(-c2ccc(F)cc2)ccc1=O)Nc1ccc(C(=O)NC2CC2)cc1 | 4.73 | 1160 nM [rising, full curve] | 1300 nM [rising, full curve]
47 | CC1CN/C(=C\C(=O)c2ccc(Br)cc2)C(=O)N1 (centres undefined) | -1.39 | 2060 nM [rising, single point] | 
48 | O=C(Nc1cc(Cl)cc(Cl)c1)N1CCN(C(=O)C2CCCO2)CC1 (centres undefined) | 34.1 | 1840 nM [rising, partial curve, poor fit] | 29100 nM [rising, partial curve]
49 | COc1ccc(Cc2nnc(NC(=O)c3c(-c4ccccc4)noc3C)s2)cc1OC | 4.38 | 20600 nM [rising, partial curve] | 
50 | CN1CCN(CCCNC(=O)c2cn(C3CCCCC3)c(=O)c3c2c2ccccc2n3C)CC1 | -14 | 116 nM [falling, partial curve, poor fit] | 
51 | O=C(CCC1CCCN(C(=O)c2ccoc2)C1)NCc1ccccc1F (centres undefined) | -32.3 | 1460 nM [falling, full curve] | 1300 nM [falling, full curve, poor fit]
52 | Cc1nc2ccccc2c2oc(C(=O)N3CCN(C(=O)c4ccco4)CC3)cc12 | -2.94 | 29100 nM [falling, single point] | 
53 | Cc1cc2ccccc2n1CCNC(=O)C1CCCCC1 | 40.7 |  | 18400 nM [rising, single point]
54 | O=C1CCCC/C1=C/Nc1ccc(C(=O)O)cc1 | 1.03 |  | 
55 | CCOc1ccccc1CN1CCNC(=O)C1CC(=O)NCc1cc(C)n(C)n1 (centres undefined) | -30.7 | 580 nM [falling, single point] | 20600 nM [falling, single point]
56 | O=C(CN1C(=O)C2CC=CCC2C1=O)Nc1ccccc1N1CCCC1 (centres undefined) |  |  | 1840 nM [rising, partial curve, poor fit]
57 | COc1ccc(C(C)=O)cc1COc1ccccc1[N+](=O)[O-] | 46.8 | 116 nM [falling, full curve, poor fit] | 
58 | Cc1ccc(C)c(S(=O)(=O)N2CCN(C(=O)c3sccc3C)CC2)c1 | 80.7 |  | 8200 nM [rising, partial curve]
